The values below come from paper PMC6001059.

The chains behind the UniProt entries cited, without tags or fusion partners.
UniProt P17679: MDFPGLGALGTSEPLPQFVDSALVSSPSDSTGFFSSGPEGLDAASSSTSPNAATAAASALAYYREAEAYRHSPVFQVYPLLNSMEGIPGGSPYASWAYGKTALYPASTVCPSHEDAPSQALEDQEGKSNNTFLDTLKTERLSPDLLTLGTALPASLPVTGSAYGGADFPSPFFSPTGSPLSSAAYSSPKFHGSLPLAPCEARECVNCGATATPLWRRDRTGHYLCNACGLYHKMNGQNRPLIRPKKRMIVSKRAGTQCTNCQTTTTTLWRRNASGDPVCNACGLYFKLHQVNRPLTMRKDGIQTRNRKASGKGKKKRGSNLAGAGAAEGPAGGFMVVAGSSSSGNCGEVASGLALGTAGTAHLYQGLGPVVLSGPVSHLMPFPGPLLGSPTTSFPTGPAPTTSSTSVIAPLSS

Test [1] concerns the target C-terminally 3xFLAG-TEV-Avi tandem affinity tagged murine GATA1 (mouse) (UniProt P17679). The experiment in a line: co-IP; immunoprecipitation with an anti-FLAG antibody; data not shown.
Test [2] has the same target. Description: pull-down; streptavidin pulldown of biotinylated tagged GATA1 from nuclear extracts of transiently transfected HEK293 cells (24 h); ZNF143 detected by immunoblot. Background: Immunoblotting shows a protein as a band on a membrane.

No constants are given. Whether binding was seen depends on the method and setting. In cells and extracts the contact can be indirect. Some results given as binding are weak or reduced against the parent protein; the word gives no strength.

B1: endogenous transcription factor ZNF143 (protein, UniProt P52747 1-638)
chain: MLLAQINRDSQGMTEFPGGGMEAQHVTLCLTEAVTVADGDNLENMEGVSLQAVTLADGSTAYIQHNSKDAKLIDGQVIQLEDGSAAYVQHVPIPKSTGDSLRLEDGQAVQLEDGTTAFIHHTSKDSYDQSALQAVQLEDGTTAYIHHAVQVPQSDTILAIQADGTVAGLHTGDATIDPDTISALEQYAAKVSIDGSESVAGTGMIGENEQEKKMQIVLQGHATRVTAKSQQSGEKAFRCEYDGCGKLYTTAHHLKVHERSHTGDRPYQCEHAGCGKAFATGYGLKSHVRTHTGEKPYRCSEDNCTKSFKTSGDLQKHIRTHTGERPFKCPFEGCGRSFTTSNIRKVHVRTHTGERPYYCTEPGCGRAFASATNYKNHVRIHTGEKPYVCTVPGCDKRFTEYSSLYKHHVVHTHSKPYNCNHCGKTYKQISTLAMHKRTAHNDTEPIEEEQEAFFEPPPGQGEDVLKGSQITYVTGVEGDDVVSTQVATVTQSGLSQQVTLISQDGTQHVNISQADMQAIGNTITMVTQDGTPITVPAHDAVISSAGTHSVAMVTAEGTEGEQVAIVAQDLAAFHTASSEMGHQQHSHHLVTTETRPLTLVATSNGTQIAVQLGEQPSLEEAIRIASRIQQGETPGLDD
As for B1, the binding entry in test [1] and in test [2] was “binds” in each case.
